The text below walks through data of patent US20240253023A1, “PERFLUORINATED AMIDE SALTS AND THEIR USES AS IONIC CONDUCTING MATERIALS” (priority 1996, published 2024).

This series can be described thus: chiral catalysis of the Diels Alder reaction of methylvinylketone with cyclopentadiene. As to conditions: 200 μmoles catalyst, dichloromethane, 24 hours, room temperature; determined by RMN after chiral column.

On to `CC1(C)C2CCC1(CS(=O)(=O)[N-]S(=O)(=O)C(F)(F)C(F)(F)C(F)(F)C(F)(F)F)C(=O)C2.CC1(C)C2CCC1(CS(=O)(=O)[N-]S(=O)(=O)C(F)(F)C(F)(F)C(F)(F)C(F)(F)F)C(=O)C2.CC1(C)C2CCC1(CS(=O)(=O)[N-]S(=O)(=O)C(F)(F)C(F)(F)C(F)(F)C(F)(F)F)C(=O)C2.[La+3]` [LaCSTFSI, lanthanum salt of (1R)-(−)-10-camphor-sulfonyl)perfluorobutanesulfonyl)imide], for which the “Enantiomeric Excesses” value is listed as 76%.

Regarding `COCCCCN([C@H](C)C(C)C)S(=O)(=O)[N-]S(=O)(=O)C(F)(F)F.COCCCCN([C@H](C)C(C)C)S(=O)(=O)[N-]S(=O)(=O)C(F)(F)F.COCCCCN([C@H](C)C(C)C)S(=O)(=O)[N-]S(=O)(=O)C(F)(F)F.[La+3]` [LaMBBMTFSI], the “Enantiomeric Excesses” value is on record as 72%.

On to `O=S(=O)([N-]S(=O)(=O)C(F)(F)F)OC(c1ccccc1)C(F)(F)F.O=S(=O)([N-]S(=O)(=O)C(F)(F)F)OC(c1ccccc1)C(F)(F)F.O=S(=O)([N-]S(=O)(=O)C(F)(F)F)OC(c1ccccc1)C(F)(F)F.[La+3]` (stereo not drawn) [LaPTETFSI, lanthanum salt of trifluoromethanesulfonyl(R(−)-1-phenyl-2,2-trifluoroethanoxysulfonyl)imide], for which the “Enantiomeric Excesses” value stood at 69%.

As for “scandium salt of trifluoromethanesulfonyl (N-(1S)-(+)-ketopinic-acetyl-N-methylsulfonyl)imide [ScKANTFSI]”, the “Enantiomeric Excesses” value was found to be 67%.
